According to publication PMC5636791, “Non-canonical reader modules of BAZ1A promote recovery from DNA damage”:
Substitutions are numbered along the chain they refer to. A weaker result is weaker than the reference pair of the same experiment. Protein sequences can lack the tags named with them. For some assays here: The exact form of at least one protein or probe is not confirmed. For some assays here: At least one verdict rests on a figure or table, not on a statement of the authors.

What was measured:
[1] = biological target: T1, BAZ1A-PHD K1181A/K1183Y (KAKY) (human) (UniProt Q9NRL2); assay: fluorescence polarization; settings: binding stated to depend on K1181 and K1183; FP: 20 mM Tris pH 7.5, 150 mM NaCl, 1% glycerol, 0.5 mg/mL BSA, 0.05% Triton X-100, RT, 50 nM probe; recombinant protein; residues 1137-1202; protein details: His6-FLAG N-terminal, removed for BLI; label: 5' fluorescein
T1 sequence (looked up): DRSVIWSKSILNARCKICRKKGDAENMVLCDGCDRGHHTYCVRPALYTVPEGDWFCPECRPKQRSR

BAZ1A-PHD K1181A (human) = biological target: T2, BAZ1A-PHD K1181A (human) (UniProt Q9NRL2); assay: BLI; settings: BLI: 50 mM Tris pH 7.5, 150 mM NaCl, 1 mM TCEP, 0.5% BSA, 0.01% Tween-20, 23 C; recombinant protein; residues 1137-1202; protein details: His6-FLAG N-terminal, removed for BLI; label: 5' biotin
T2 sequence (looked up): T1 sequence (looked up) with Y47K

Sequence: ATCAGAATCCCGGTGCCGAGGCCGCTCAATTGGTCGTAGACAGCTCTAGCACCGCTTAAACGCACGTACGCGCTGTCCCCCGCGTTTTAACCGCCAAGGGGATTACTCCCTAGTCTCCAGGCACGTGTCAGATATATACATCGAT (double strand) [Widom-601 145 bp duplex, fluorescein]
- binding result [1]: binds more weakly

Sequence: CTTGCATCGATCCGATTGAACCATCGCTCGGTGACAGCTACGTGACTTAGTGTGCCCCATCGATCCAGTTCGATCACAGGCCACCTGAGTCGAGAGTATCGACACCCAGTGAACGATCGATCCGACTCGATCGCCTCACTGCTAG (double strand) [scrambled Widom-601 145 bp duplex]
- binding result (BAZ1A-PHD K1181A (human)): binds more weakly
